Data published in patent US20040248198A1 (ST JUDE CHILDREN S RESEARCH HOSPITAL, published 2004).
Results are given in words; binding and its absence hold for the method and conditions named. Some entries that bind do so weakly or less than the wild type. Sequences can lack the tags named with a protein.

Legend:
His-tagged mArfN37 [1] = molecular target: T1, His-tagged mArfN37 (mouse); assay: SPR (Biacore), His-tagged mArfN37 captured by anti-His antibody, Hdm2 peptide as analyte, reference cell subtracted
T1 construct: Captured on the SPR chip through a covalently attached Tetra-His antibody; also called His-mArfN37; His-tagged mArf37; not shown: thrombin-cleavable poly-His tag
T1 chain: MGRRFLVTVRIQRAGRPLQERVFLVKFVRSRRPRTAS
Procedure: Surface Plasmon Resonance. Binding studies were performed using a Biacore 3000 surface plasmon resonance (SPR) instrument (Biacore, Inc.). A Tetra-His™ Antibody (Qiagen, Inc.; Cat. #34670) was covalently attached to a carboxymethylated gold surface (C-1 chip; Biacore, Inc.). The carboxymethyl groups on the surface were activated with N-ethyl-N-(3-dimethylaminopropyl) carbodiimide (EDC) and N-hydroxysuccinimide (NHS) and the antibody was attached at pH 7.4 in 20 mM sodium phosphate buffer, 150 mM NaCl (PBS). Reactive sites remaining on the surface were blocked by reaction with ethanolamine. The His-tagged ligand was attached to the antibody by injecting a […] solution of the ligand in 10 mM HEPES, 150 mM NaCl, pH 7.4 (HBS-N buffer, Biacore) at a flow rate of 10 μL/Min through the flow cell. A reference cell was prepared similarly except that no His-tagged ligand was added. Binding was measured by flowing the non-His-tagged analyte through the reference and ligand-containing flow cells in sequence. Prior to injection of ligands, the chip surfaces were equilibrated in HBS-N buffer. Changes in the SPR response due to solvent differences and the injection process were monitored by injection of HBS-N buffer alone. Regeneration of the chip surface to remove bound analyte and ligand was accomplished by two 100 μL injections of 10 mM glycine, pH 2.0 through both flow cells. […]

His-tagged mArfN37 [2] = molecular target: T1, His-tagged mArfN37; assay: SPR, His-mArfN37 captured by anti-His antibody
[3] = molecular target: T2, mArfN37 (N-terminal fragment of mouse p19Arf, residues 1-37), His tag cleaved (mouse); assay: CD-based binding assay
T2 sequence: T1 chain

Measured: binding

VYQVTVYQAGESDTD (peptide amide; N-terminal acetylation (general synthesis method)) [Hdm2 peptide of the H2 segment (residues 275-289 of SEQ ID NO:8)]
binds: His-tagged mArfN37 [1] | His-tagged mArfN37 [2] | [3]
